Test results from PubChem BioAssay AID504444 (National Center for Advancing Translational Sciences (NCATS), 2011).
About 7,500 (2.1%) of roughly 360,000 compounds were called active. Inconclusive means that the source gave no clear call. Such entries were picked first, then a sample of the others. Calls come from the whole dose curve; as a rule, active = well fitted inhibition curve with a large enough effect; inconclusive = small, poorly fitted or top-dose-only effect, or effect the other way; inactive = flat fitted curve, though single readings scatter. A potency beside an inconclusive call is a rough fit, not a confirmed value.

Assay: Nrf2 qHTS screen for inhibitors; note: nearly all actives have a fitted effect of over 60% in size
Conditions: A549 ARE-Fluc reporter, luciferase luminescence, 18-24 h; activity change, negative = inhibition: at 46 µM (top of the series)
In short: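 Quantitative HTS in A549 cells stably bearing an antioxidant response element-firefly luciferase construct. Inhibition of Nrf2-driven transcription was scored by luminescence after 18-24 h of compound exposure at 37 °C.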
% is set by controls: 0 for no effect and ±100 for the full control effect; potency is the fitted concentration of half-maximal effect.

SMILES	Potency	activity change, negative = inhibition
COc1ccc(-c2nnn(CC(=O)NCCc3c[nH]c4ccccc34)n2)cc1OC	inconclusive: 6.51 µM [falling, partial curve, poor fit]	
CCOC(=O)c1c(C)nc(C)c(C(=O)OCC)c1-c1ccc(O)c(OC)c1	inconclusive: 29.1 µM [activator, partial curve, poor fit]	
COc1ccc(N2CCN(C(=O)C3CCN(S(=O)(=O)c4ccccc4)CC3)CC2)cc1	inconclusive: 14.6 µM [falling, partial curve, poor fit]	
CSc1ccc(Cl)c(C(=O)NCCOc2cc(C)ccc2C(C)C)c1	inconclusive: 29.1 µM [falling, single point]	
CCCOc1ccc(C(F)(F)F)cc1NC(=O)CCc1c(C)noc1C	inconclusive: 13 µM [falling, partial curve, poor fit]	
COc1ccc(C2C(C(=O)Nc3cc(OC)c(OC)c(OC)c3)c3ccccc3C(=O)N2C)cc1OC (stereo not drawn)	inconclusive: 7.31 µM [falling, partial curve, poor fit]	
Cc1ccc(S(=O)(=O)N(CC(=O)NCCc2ccc(Cl)cc2)c2ccccc2C)cc1	active: 25.9 µM	
CCc1ccc(OCC(=O)N(Cc2ccc(C)o2)C2CCS(=O)(=O)C2)cc1 (stereo not drawn)		inactive: 13%
Cc1c(NC(=O)CSc2nnc3c4ccccc4n(CCc4ccccc4)c3n2)c(=O)n(-c2ccccc2)n1C	inconclusive: 2.91 µM [activator, full curve]	
COc1ccc(CCNC(=O)c2cnn(-c3ccc(F)cc3)c2C2CCN(C(=O)OC(C)(C)C)CC2)c(OC)c1		inactive: -26.2%
COc1cccc(C(c2c(NC(=O)c3ccco3)sc(C)c2C)N2CCOCC2)c1 (stereo not drawn)		inactive: -16.1%
CCc1ccccc1NC(=O)N1CCc2c([nH]c3ccccc23)C1c1ccc(C)cc1 (stereo not drawn)	inconclusive: 23.1 µM [falling, single point]	
CSc1nccc(NC(=O)c2ccc(C(C)(C)C)cc2)n1	inconclusive: 4.61 µM [falling, full curve, poor fit]	
COc1ccc(C2C(C#N)=C(N)N(Nc3ccccc3)C3=C2C(=O)CC(C)(C)C3)cc1C (stereo not drawn)	inconclusive: 29.1 µM [falling, single point]	
COc1ccccc1NS(=O)(=O)c1cccc(C(=O)N/N=C/c2ccc([N+](=O)[O-])o2)c1	inconclusive: 20.6 µM [falling, single point]	
Cc1ccccc1NC(=O)Nc1nc2ccc(S(C)(=O)=O)cc2s1	inconclusive: 0.651 µM [activator, full curve]	
CC(C)(C)c1ccc(CNc2cc(N3CCOCC3)ccc2[N+](=O)[O-])cc1	inconclusive: 29.1 µM [falling, single point]	
CC(=O)c1ccc(N2CCN(c3ncnc4c3nc3n4CCCC3)CC2)cc1	active: 23.1 µM	
CC(=O)c1ccc(-c2nnc(CCC(=O)N3CCCC(C(=O)CC(C)C)C3)o2)s1 (stereo not drawn)	inconclusive: 3.26 µM [activator, partial curve]	
COCC(C)n1c(C)cc(C(=O)CSc2nnnn2-c2ccc(O)cc2)c1C (stereo not drawn)	inconclusive: 10.3 µM [activator, partial curve, poor fit]	
Cc1ccc(CSc2ccc(-c3ccc4c(c3)OCO4)nn2)cc1		inactive: 3.09%

SMILES	Potency	activity change, negative = inhibition
COC(=O)c1sccc1NC(=O)COc1ccccc1Cl	inconclusive: 14.6 µM [activator, partial curve, poor fit]	
CN1C=CC=C/C1=C1/N=C(c2ccccc2)OC1=O	inconclusive: 6.51 µM [falling, single point]	
C=CCN(C(=O)COC(=O)c1cc[n+]([O-])cc1)c1nc(-c2ccccc2)cs1	inconclusive: 9.2 µM [activator, partial curve]	
N#CCCn1cc(/C=N/O)c(-c2cccc([N+](=O)[O-])c2)n1	inconclusive: 0.517 µM [falling, full curve]	
COc1cccc(C2=Nn3c(nnc3-c3cccc(OC)c3)SC2)c1	inconclusive: 23.1 µM [falling, single point]	
COc1ccc(CCNC(=O)COc2cc(O)c3c(c2)OC(C)(C)CC3=O)cc1OC	inconclusive: 18.4 µM [activator, partial curve]	
Cc1ccc2c(COC(=O)c3ccc(C)c(C)c3)cc(=O)oc2c1	inconclusive: 29.1 µM [activator, single point]	
Cn1c(-c2ccc(Br)cc2)cnc1NCc1ccc(C#N)cc1	inconclusive: 13 µM [falling, partial curve]	
COCCCNC(=O)c1ccc(-n2c(-c3ccccc3)cc3c2CCC(C)C3)cc1 (stereo not drawn)		inactive: 8.57%
O=S(=O)(c1cccs1)N1CCN(CCOc2ccc(Cl)cc2)CC1	active: 14.6 µM	
COc1ccc(C2CC(c3ccc(OC)c(OC)c3)=NN2S(C)(=O)=O)cc1 (stereo not drawn)	inconclusive: 3.26 µM [activator, partial curve]	
FC(F)(F)COc1cc(-c2nnc(SCc3ccccc3)n2Cc2ccco2)cc(OCC(F)(F)F)n1	inconclusive: 18.4 µM [falling, partial curve]	
S=C(Nc1cccc2ccccc12)Nc1cccc2ccccc12		inactive: 7.04%
Cc1cc(F)ccc1S(=O)(=O)N1CCCOC1CNC(=O)C(=O)NCCC1=CCCCC1 (stereo not drawn)	inconclusive: 0.651 µM [activator, full curve, poor fit]	
Cc1cc(C(F)(F)F)nc(SCC(=O)Nc2cc(C)on2)n1	inconclusive: 23.1 µM [activator, single point]	
CCC(=O)Nc1cccc(C(=O)c2ccc(C)c(C)c2)c1	inconclusive: 16.4 µM [falling, partial curve]	
Cc1ccccc1N1CCN(C2CCCN(C(=O)c3cc(CC(C)C)nn3C)C2)CC1 (stereo not drawn)	inconclusive: 32.6 µM [falling, single point]	
CC(C)(C)n1nnnc1CN1CCN(C(c2ccccc2)c2ccccc2)CC1	inconclusive: 0.0052 µM [falling, full curve, poor fit]	
COc1ccccc1S(=O)(=O)c1ccccc1[N+](=O)[O-]	inconclusive: 8.2 µM [falling, partial curve, poor fit]	
COc1ccc(CCN2C(=O)c3[nH]nc(-c4ccccc4O)c3C2c2cccc(Cl)c2)cc1 (stereo not drawn)	inconclusive: 18.4 µM [falling, single point]	
COC1=C(c2ccccc2)C(=O)c2ccccc2C1=O		inactive: -12.5%

SMILES	Potency	activity change, negative = inhibition
Cc1ccc2[nH]c(C(=O)N3CCCC(Nc4ccc(F)cc4)C3)cc2c1 (stereo not drawn)	inconclusive: 29.1 µM [falling, single point]	
COc1cc(OC)cc(C(=O)Nc2cccc(NC(=O)c3cc(OC)cc(OC)c3)n2)c1	inconclusive: 0.58 µM [falling, partial curve, poor fit]	
CCOC(=O)c1cc(-c2ccccc2)sc1NC(=O)C(C)N1C(=O)NC(C)(c2ccc(Cl)cc2)C1=O (stereo not drawn)	inconclusive: 29.1 µM [falling, single point]	
COc1ccc(-c2cc(C(=O)Oc3ccc([N+](=O)[O-])cc3)c3ccccc3n2)cc1	inconclusive: 29.1 µM [falling, single point]	
O=C(COc1cc(F)ccc1[N+](=O)[O-])Nc1cccc(S(=O)(=O)NC2=NCCC2)c1		inactive: -12.1%
O=C1NC(Nc2ccccn2)(C(F)(F)F)C(=O)N1c1ccc(F)cc1 (stereo not drawn)	inconclusive: 3.66 µM [falling, partial curve, poor fit]	
OCCCNc1nc(-c2ccc(Cl)cc2)nnc1-c1ccccc1	inconclusive: 2.59 µM [activator, full curve, poor fit]	
COc1ccc(NC(=O)C2CCCN(S(=O)(=O)c3ccc4c(c3)oc(=O)n4C)C2)c(OC)c1 (stereo not drawn)	inconclusive: 16.4 µM [falling, single point]	
Cc1ccc(OCCN2C(=O)c3ccccc3C2=O)c(C)c1	inconclusive: 23.1 µM [activator, partial curve, poor fit]	
O=C1C(c2ccc(F)cc2)N(Cc2ccc3c(c2)OCO3)C(=O)CN1C1CCCCC1 (stereo not drawn)	inconclusive: 29.1 µM [falling, single point]	
COc1ccc(NC(=O)CC2C(=O)N(C)C(=S)N2CCc2ccc(F)cc2)cc1 (stereo not drawn)	active: 23.1 µM	
COCCNC(=O)c1ccc(Cn2c(=S)[nH]c3cc4c(cc3c2=O)OCO4)cc1	inconclusive: 23.1 µM [falling, single point]	
O=C(CN1C(=O)NC2(CCCCC2)C1=O)Oc1ccc2ccc(=O)oc2c1		inactive: 4.54%
O=[N+]([O-])c1ccc(N2CCN(CCO)CC2)cc1Sc1nc2ccccc2[nH]1	inconclusive: 0.184 µM [falling, full curve]	
COc1cc(-n2nnnc2SCC(=O)N2CCN(c3ccc(F)cc3)CC2)c(OC)cc1Cl	inconclusive: 20.6 µM [falling, single point]	
CCOc1ccc(CCNC(=O)C2CCN(C(=O)c3cc4sccc4n3CC)CC2)cc1OCC	inconclusive: 29.1 µM [falling, single point]	
Cc1cccc(C(=O)Oc2ccc(/C=N/O)cc2)c1	inconclusive: 29.1 µM [activator, single point]	
NC(=S)N/N=C\c1c2ccccc2cc2ccccc12	inconclusive: 32.6 µM [falling, single point]	
CCCCCCCn1c2c(c(=N)c3ccccc31)CCC2	active: 2.31 µM	
Cc1ccc(NC(=O)c2csc(-c3ccccc3)c2C)cc1	inconclusive: 29.1 µM [falling, single point]	
CCc1c(C(=O)NCCc2cccc(C)c2)[nH]c(C)c1C(C)=O	inconclusive: 1.64 µM [activator, full curve]	

A different layout for part of the listing above:
SMILES | Potency | activity change, negative = inhibition
O=C1NC(Nc2ccccn2)(C(F)(F)F)C(=O)N1c1ccc(F)cc1 (stereo not drawn) | inconclusive: 3.66 µM [falling, partial curve, poor fit] | 
Cc1cccc(C(=O)Oc2ccc(/C=N/O)cc2)c1 | inconclusive: 29.1 µM [activator, single point] | 
CCCCCCCn1c2c(c(=N)c3ccccc31)CCC2 | active: 2.31 µM | 
